The record followed here is patent US20230212285A1.

Amino acid sequences for entries named in this document (tags omitted). A change or cut given only in a name is not applied to a line headed by its entry.
UniProt P10721: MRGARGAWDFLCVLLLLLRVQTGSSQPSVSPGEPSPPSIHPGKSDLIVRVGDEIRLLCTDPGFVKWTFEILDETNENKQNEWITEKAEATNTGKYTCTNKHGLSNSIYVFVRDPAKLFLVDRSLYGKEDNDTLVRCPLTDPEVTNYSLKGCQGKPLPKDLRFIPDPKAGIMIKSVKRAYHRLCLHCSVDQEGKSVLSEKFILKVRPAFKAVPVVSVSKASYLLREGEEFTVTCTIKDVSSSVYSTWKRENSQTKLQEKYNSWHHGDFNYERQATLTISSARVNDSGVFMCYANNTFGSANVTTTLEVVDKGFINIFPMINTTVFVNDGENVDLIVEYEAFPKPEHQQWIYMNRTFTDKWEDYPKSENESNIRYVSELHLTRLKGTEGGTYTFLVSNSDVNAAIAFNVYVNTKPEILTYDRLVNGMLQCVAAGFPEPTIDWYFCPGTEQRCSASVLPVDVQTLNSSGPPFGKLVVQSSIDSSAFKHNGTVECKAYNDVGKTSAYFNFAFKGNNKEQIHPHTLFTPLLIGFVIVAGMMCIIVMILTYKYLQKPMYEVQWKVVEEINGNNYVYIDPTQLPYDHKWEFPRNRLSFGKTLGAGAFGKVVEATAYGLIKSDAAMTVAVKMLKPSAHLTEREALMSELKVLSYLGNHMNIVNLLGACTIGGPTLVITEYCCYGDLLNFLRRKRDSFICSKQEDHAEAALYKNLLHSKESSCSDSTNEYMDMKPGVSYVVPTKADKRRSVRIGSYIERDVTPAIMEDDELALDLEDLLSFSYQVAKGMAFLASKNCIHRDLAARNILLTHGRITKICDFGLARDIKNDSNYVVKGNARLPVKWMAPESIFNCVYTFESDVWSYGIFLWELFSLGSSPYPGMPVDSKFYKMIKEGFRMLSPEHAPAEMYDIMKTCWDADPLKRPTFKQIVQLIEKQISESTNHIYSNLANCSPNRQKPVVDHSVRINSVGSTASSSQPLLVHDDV

No constants are given. Whether binding was seen depends on the method and setting. Some entries that bind do so weakly or less than the wild type.

Assay [1] addresses human C-KIT-Fc protein (human) (UniProt P10721). Nature of the assay: direct titration ELISA.
Assay [2] concerns the target human C-KIT on stably transfected CHO-K1 cells (human) (UniProt P10721). In words: flow cytometry, 0.02-100 µg/ml. Background: A flow cytometer gives signals particle by particle.

B1: m37M chimeric anti-C-KIT IgG1 (antibody, V domains shown)
VH: QVQLKQSGAELVRPGASVKLSCKASGYTFTDYYINWVKQRPGQGLEWIARIYPGSGNTYYNEKFKGKATLTAEKSSSTAYMQLSSLTSEDSAVYFCARGVYYFDYWGQGTTLTVSS
VL: DIVMTQSQKFMSTSVGDRVSVTCKASQNVRTNVAWYQQKPGQSPKALIYSASYRYSGVPDRFTGSGSGTDFTLTISNVQSEDLADYFCQQYNSYPRTFGGGTKLEIKR
For the molecule B1, the binding result in assay [1] and in assay [2] was “binds” throughout.
